PubChem BioAssay AID602196, INSERM, 2012
Screen: 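Modifiers of cisplatin sensitivity in A549 cells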. System: human A549 lung cancer cells. Reagent: siRNA pair against human genes. Duration: 48 h transfection before cisplatin; time from cisplatin to read-out not stated. Conditions: cisplatin at a dose killing half of control-siRNA cells; exact dose and duration not given. Measurement: 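Cisplatin cell death as a shift from the 50% death seen with control siRNA; siRNAs toxic or growth-blocking alone scored 0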. Scale: two-siRNA summed score (-2 to +2): higher = both siRNAs protect from cisplatin killing; -2 means both sensitise; mean protection from cisplatin (shift in death) and protection from cisplatin (shift in death), siRNA C and protection from cisplatin (shift in death), siRNA D: higher = protection from cisplatin killing. Hit rule: 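Each siRNA scores 0 if harmful alone by LDH or WST-1, otherwise +1 if it reduces and -1 if it increases cisplatin killing; a gene is active when both siRNAs agree (sum +2 or -2)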. Meaning of the calls: active = both siRNAs shift cisplatin killing the same way; inactive = no consistent shift, or siRNA harmful alone.
This is an unselected part of about 23,000 reagents tested. In the full data, 455 (2%) are marked active. 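Active includes both protection and sensitisation; some change values fall well beyond the stated -50 to +50 range.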 Reagents against one gene are numbered here. Not stated in the record: the amount of reagent.

no.	target	reagent no.	two-siRNA summed score (-2 to +2)	mean protection from cisplatin (shift in death) (%)	protection from cisplatin (shift in death), siRNA C (%)	protection from cisplatin (shift in death), siRNA D (%)	call
1	PLIN4 (GeneID 729359)	1	0	4.2	14.6	-6.2	inactive
2	ARPC4 (GeneID 10093)	1	0	-6.8	-1.8	-11.9	inactive
3	PNLIPRP2 (GeneID 5408)	1	0	-9.4	-29.1	10.3	inactive
4	BEX1 (GeneID 55859)	1	1	16.1	17.8	14.4	inactive
5	EIF3KP1 (GeneID 134505)	1	0	3.9	9	-1.2	inactive
6	MRAP2 (GeneID 112609)	1	0	-1.9	-6.2	2.3	inactive
7	LRRC8A (GeneID 56262)	1	1	19.1	17.2	20.9	inactive
8	LOC441681	1	0	24.6	8	41.1	inactive
9	FLYWCH1L (retired record) (GeneID 391594)	1	-1	-5.4	3.4	-14.3	inactive
10	LOC441388	1	0	1.4	-1.5	4.2	inactive
11	BCL2L13 (GeneID 23786)	1	0	13.4	26.6	0.2	inactive
12	GAD1 (GeneID 2571)	1	-1	8.3	-8.7	25.3	inactive
13	TBC1D12 (GeneID 23232)	1	0	3.8	10.5	-2.9	inactive
14	B3GAT3 (GeneID 26229)	1	0	-7.3	-9.8	-4.7	inactive
15	LPCAT1 (GeneID 79888)	1	0	-6.3	3.6	-16.1	inactive
16	PFDN2 (GeneID 5202)	1	1	14.6	12.3	16.9	inactive
17	SOX15 (GeneID 6665)	1	-1	-8.8	0.4	-18.1	inactive
18	PALMD (GeneID 54873)	1	0	11	3	19	inactive
19	C14orf93 (GeneID 60686)	1	0	3.2	13.9	-7.4	inactive
20	CCL3 (GeneID 6348)	1	0	4	5.6	2.3	inactive
21	LOC388134	1	0	7	10.3	3.6	inactive
22	LOC400880	1	0	3.9	-2.8	10.5	inactive

8 entries from above, ordered by “protection from cisplatin (shift in death), siRNA C (%)”, low to high.
target	reagent no.	two-siRNA summed score (-2 to +2)	mean protection from cisplatin (shift in death) (%)	protection from cisplatin (shift in death), siRNA C (%)	protection from cisplatin (shift in death), siRNA D (%)	call
LOC400880	1	0	3.9	-2.8	10.5	inactive
SOX15 (GeneID 6665)	1	-1	-8.8	0.4	-18.1	inactive
PALMD (GeneID 54873)	1	0	11	3	19	inactive
LPCAT1 (GeneID 79888)	1	0	-6.3	3.6	-16.1	inactive
CCL3 (GeneID 6348)	1	0	4	5.6	2.3	inactive
LOC388134	1	0	7	10.3	3.6	inactive
PFDN2 (GeneID 5202)	1	1	14.6	12.3	16.9	inactive
C14orf93 (GeneID 60686)	1	0	3.2	13.9	-7.4	inactive

The list goes on.
no.	target	reagent no.	two-siRNA summed score (-2 to +2)	mean protection from cisplatin (shift in death) (%)	protection from cisplatin (shift in death), siRNA C (%)	protection from cisplatin (shift in death), siRNA D (%)	call
23	TRIT1 (GeneID 54802)	1	0	-6.2	-11.9	-0.5	inactive
24	C1orf174 (GeneID 339448)	1	0	6.4	10.7	2.1	inactive
25	SIPA1L2 (GeneID 57568)	1	0	11.7	18.5	4.8	inactive
26	KPNA2 (GeneID 3838)	1	-1	-20.5	-19.2	-21.7	inactive
27	LOC387992	1	0	1.2	6.6	-4.2	inactive
28	TMEM74B (GeneID 55321)	1	0	0.3	11.8	-11.2	inactive
29	LOC442649	1	1	18.1	7.6	28.7	inactive
30	RASSF5 (GeneID 83593)	1	1	12.6	-4.5	29.7	inactive
31	COPZ2 (GeneID 51226)	1	0	12.5	11	13.9	inactive
32	RPS15A (GeneID 6210)	1	0	14.1	0.5	27.7	inactive
33	RPS15A (GeneID 6210)	2	0	22.3	1.4	43.1	inactive
34	LOC401855	1	0	8.4	5.1	11.6	inactive
35	FLJ44955	1	0	4.2	-9.1	17.5	inactive
36	KRTAP4-2 (GeneID 85291)	1	0	8.8	15.5	2.2	inactive
37	PUM3 (GeneID 9933)	1	1	2.9	-6.8	12.6	inactive
38	LINC00880 (GeneID 339894)	1	0	4.4	7.5	1.3	inactive
39	C1D (GeneID 10438)	1	0	-1.3	5.3	-8	inactive
40	CD19 (GeneID 930)	1	0	8.1	7.3	8.9	inactive
41	UGDH (GeneID 7358)	1	0	-2	1.8	-5.9	inactive
42	TMEM167A (GeneID 153339)	1	0	5.1	-2.2	12.4	inactive
43	TMX3 (GeneID 54495)	1	0	-3	5.8	-11.7	inactive
44	PPP1R17 (GeneID 10842)	1	0	-0.1	7.4	-7.6	inactive
45	NEURL1 (GeneID 9148)	1	0	4.7	6.8	2.7	inactive
46	LOC389607 (retired record) (GeneID 389607)	1	1	13.4	11.2	15.6	inactive
47	SNAI1 (GeneID 6615)	1	0	-4	14.2	-22.2	inactive
48	LOC441824	1	0	2.6	3.7	1.6	inactive
49	MS4A2 (GeneID 2206)	1	-1	-6.9	-9.5	-4.3	inactive
50	EXTL2 (GeneID 2135)	1	1	8	3.7	12.2	inactive
51	LOC392437	1	0	8.7	5.2	12.1	inactive
52	CPNE3 (GeneID 8895)	1	-1	2.2	-17.3	21.6	inactive
53	CHSY3 (GeneID 337876)	1	0	-0.8	3.7	-5.4	inactive
54	HPS6 (GeneID 79803)	1	0	4.8	-2.7	12.4	inactive
55	C1QL3 (GeneID 389941)	1	2	14.7	13.4	16	active
56	CHRNA2 (GeneID 1135)	1	0	1.3	5.8	-3.3	inactive
57	SLC2A9 (GeneID 56606)	1	0	-3.6	2.8	-10	inactive
